In patent publication US7763642B2 (Sterix Ltd., priority 2004, dated 2010):

Target: T1, aromatase (Homo sapiens, UniProt P11511)
T1 construct: Intact monolayers of JEG3 cells (2.5×10^6 cells) in triplicate 25 cm^2 tissue culture flasks; host or cells: JEG3 choriocarcinoma cells
T1 sequence (P11511 1-503): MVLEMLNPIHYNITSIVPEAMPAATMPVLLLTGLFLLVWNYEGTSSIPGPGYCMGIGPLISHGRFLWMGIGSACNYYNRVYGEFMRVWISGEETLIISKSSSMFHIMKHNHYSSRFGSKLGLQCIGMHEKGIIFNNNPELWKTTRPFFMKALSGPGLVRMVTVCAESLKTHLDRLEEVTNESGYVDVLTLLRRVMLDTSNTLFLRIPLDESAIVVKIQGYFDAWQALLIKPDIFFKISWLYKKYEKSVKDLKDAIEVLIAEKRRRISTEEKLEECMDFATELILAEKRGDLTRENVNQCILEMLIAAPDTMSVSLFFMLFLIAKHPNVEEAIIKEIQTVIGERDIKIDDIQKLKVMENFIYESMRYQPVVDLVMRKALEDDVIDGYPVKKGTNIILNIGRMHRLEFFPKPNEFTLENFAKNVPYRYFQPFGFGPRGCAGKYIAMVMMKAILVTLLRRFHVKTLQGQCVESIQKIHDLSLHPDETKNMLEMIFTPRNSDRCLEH
Assay: Aromatase activity in JEG3 choriocarcinoma cells (Protocol 6)
Assay type: cell-based

IC50: 1.5 nM
Structure (SMILES): CC(C)(C#N)c1cc(Cn2cncn2)cc(C(C)(C)C#N)c1 [Anastrozole, 2-[3-(Cyano-dimethyl-methyl)-5-[1,2,4]triazol-1-ylmethyl-phenyl]-2-methyl-propionitrile, reference compound]
